Data taken from article PMC6755085, “Cyclic oligoadenylate signalling mediates Mycobacterium tuberculosis CRISPR defence” (Nucleic Acids Research, 2019).
No constants are given. Whether binding was seen depends on the method and setting. In cells and extracts the contact can be indirect. Binding calls can cover weak binding; strength is not graded here. Where a sequence is shown, tags or fusion partners need not be part of it.

The substances below were run against T1, Mycobacterium tuberculosis Csm4 (Cas5), His8-V5-tagged (Mycobacterium tuberculosis) (UniProt P9WJF6) (assay: pull-down).
T1 sequence: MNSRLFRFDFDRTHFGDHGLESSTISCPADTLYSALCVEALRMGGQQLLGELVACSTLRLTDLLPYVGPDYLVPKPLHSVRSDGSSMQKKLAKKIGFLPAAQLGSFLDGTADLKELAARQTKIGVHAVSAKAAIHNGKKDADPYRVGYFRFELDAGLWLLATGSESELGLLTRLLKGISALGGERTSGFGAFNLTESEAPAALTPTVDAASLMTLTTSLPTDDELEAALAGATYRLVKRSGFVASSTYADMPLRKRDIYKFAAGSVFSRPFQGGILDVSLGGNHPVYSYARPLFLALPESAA
For “Mycobacterium tuberculosis Csm3 (Cas7) D35A (from UniProt P9WJF9)”, the binding was “binds”. In the case of Mycobacterium canettii Csm2 (Cas11), the binding is reported as “binds”. “Mycobacterium tuberculosis Csm3 (Cas7) (from UniProt P9WJF9)” was tested, and the binding was “binds”.
